From article doi:10.1101/209643 (bioRxiv, 2017)
No constants are given. Whether binding was seen depends on the method and setting. For part of these data: Binding seen in cells or lysates may run through a third protein. Tags and fused reporters may be left off the sequences shown. Some binding calls cover weakened binding; strength is not graded here.

T1: 6XHIS-tagged Cdc12 (S. cerevisiae) (UniProt P32468)
T1 sequence: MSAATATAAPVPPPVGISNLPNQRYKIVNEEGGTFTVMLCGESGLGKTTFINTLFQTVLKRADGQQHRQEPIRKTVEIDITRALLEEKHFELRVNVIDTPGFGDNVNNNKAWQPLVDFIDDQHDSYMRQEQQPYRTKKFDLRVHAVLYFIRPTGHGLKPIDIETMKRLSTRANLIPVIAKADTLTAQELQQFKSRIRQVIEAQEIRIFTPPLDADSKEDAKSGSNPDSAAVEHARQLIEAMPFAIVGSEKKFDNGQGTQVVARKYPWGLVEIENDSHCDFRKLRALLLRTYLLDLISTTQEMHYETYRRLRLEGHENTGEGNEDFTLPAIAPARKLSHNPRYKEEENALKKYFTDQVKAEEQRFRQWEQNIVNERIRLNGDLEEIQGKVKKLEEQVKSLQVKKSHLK

T2: Cdc11-GFP (yeast extract) (S. cerevisiae), P32458
T2 chain: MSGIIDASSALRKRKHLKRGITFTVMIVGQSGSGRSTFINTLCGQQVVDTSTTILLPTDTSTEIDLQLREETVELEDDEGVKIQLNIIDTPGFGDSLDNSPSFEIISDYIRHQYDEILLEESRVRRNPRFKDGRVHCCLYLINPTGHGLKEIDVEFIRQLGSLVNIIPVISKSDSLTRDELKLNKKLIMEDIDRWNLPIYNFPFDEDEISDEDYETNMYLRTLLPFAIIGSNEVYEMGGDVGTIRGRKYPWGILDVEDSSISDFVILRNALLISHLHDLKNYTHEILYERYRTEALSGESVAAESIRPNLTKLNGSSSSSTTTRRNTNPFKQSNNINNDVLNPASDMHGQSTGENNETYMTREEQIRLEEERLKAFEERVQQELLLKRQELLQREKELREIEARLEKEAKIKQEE

T3: 6XHIS-tagged Cdc12 T75A (S. cerevisiae) (UniProt P32468)
T3 sequence: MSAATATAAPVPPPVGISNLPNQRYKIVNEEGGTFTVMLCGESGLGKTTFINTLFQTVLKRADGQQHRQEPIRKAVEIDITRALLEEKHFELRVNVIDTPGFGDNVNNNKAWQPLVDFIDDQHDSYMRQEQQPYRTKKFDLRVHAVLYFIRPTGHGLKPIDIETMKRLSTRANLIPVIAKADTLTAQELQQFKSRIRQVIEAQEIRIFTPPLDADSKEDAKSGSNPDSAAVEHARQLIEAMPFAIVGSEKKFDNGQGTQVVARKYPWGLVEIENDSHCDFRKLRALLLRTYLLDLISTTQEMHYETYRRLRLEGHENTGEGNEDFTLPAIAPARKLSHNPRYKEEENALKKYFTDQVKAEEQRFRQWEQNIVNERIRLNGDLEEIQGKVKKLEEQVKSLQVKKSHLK


How the values were obtained:
[1] = target: T1, 6XHIS-tagged Cdc12 (S. cerevisiae); assay: co-purification of co-expressed proteins
[2] = target: T2, Cdc11-GFP (yeast extract) (S. …); assay: single molecule pull-down; conditions: remark: other sources report otherwise
[3] = target: T3, 6XHIS-tagged Cdc12 T75A (S. cerevisiae); assay: co-purification of co-expressed proteins

| Binder | binding [1] | binding [2] | binding [3] |
| --- | --- | --- | --- |
| Cdc10 (protein, UniProt P25342 1-322) MDPLSSVQPASYVGFDTITNQIEHRLLKKGFQFNIMVVGQSGLGKSTLINTLFASHLIDSATGDDISALPVTKTTEMKISTHTLVEDRVRLNINVIDTPGFGDFIDNSKAWEPIVKYIKEQHSQYLRKELTAQRERFITDTRVHAILYFLQPNGKELSRLDVEALKRLTEIANVIPVIGKSDTLTLDERTEFRELIQNEFEKYNFKIYPYDSEELTDEELELNRSVRSIIPFAVVGSENEIEINGETFRGRKTRWSAINVEDINQCDFVYLREFLIRTHLQDLIETTSYIHYEGFRARQLIALKENANSRSSAHMSSNAIQR | binds |  | binds |
| Cdc3 (protein, UniProt P32457 1-520) MSLKEEQVSIKQDPEQEERQHDQFNDVQIKQESQDHDGVDSQYTNGTQNDDSERFEAAESDVKVEPGLGMGITSSQSEKGQVLPDQPEIKFIRRQINGYVGFANLPKQWHRRSIKNGFSFNLLCVGPDGIGKTTLMKTLFNNDDIEANLVKDYEEELANDQEEEEGQGEGHENQSQEQRHKVKIKSYESVIEENGVKLNLNVIDTEGFGDFLNNDQKSWDPIIKEIDSRFDQYLDAENKINRHSINDKRIHACLYFIEPTGHYLKPLDLKFMQSVYEKCNLIPVIAKSDILTDEEILSFKKTIMNQLIQSNIELFKPPIYSNDDAENSHLSERLFSSLPYAVIGSNDIVENYSGNQVRGRSYPWGVIEVDNDNHSDFNLLKNLLIKQFMEELKERTSKILYENYRSSKLAKLGIKQDNSVFKEFDPISKQQEEKTLHEAKLAKLEIEMKTVFQQKVSEKEKKLQKSETELFARHKEMKEKLTKQLKALEDKKKQLELSINSASPNVNHSPVPTKKKGFLR | binds |  | binds |

Second part, the binder after the results:

| binding [1] | binding [2] | binding [3] | Binder |
| --- | --- | --- | --- |
| binds |  |  | Shs1-GFP (protein, UniProt Q07657 1-551) MSTASTPPINLFRRKKEHKRGITYTMLLCGPAGTGKTAFANNLLETKIFPHKYQYGKSNASISSNPEVKVIAPTKVVSFNSKNGIPSYVSEFDPMRANLEPGITITSTSLELGGNKDQGKPEMNEDDTVFFNLIMTHGIGENLDDSLCSEEVMSYLEQQFDIVLAEETRIKRNPRFEDTRVHVALYFIEPTGHGLREVDVELMKSISKYTNVLPIITRADSFTKEELTQFRKNIMFDVERYNVPIYKFEVDPEDDDLESMEENQALASLQPFAIITSDTRDSEGRYVREYPWGIISIDDDKISDLKVLKNVLFGSHLQEFKDTTQNLLYENYRSEKLSSVANAEEIGPNSTKRQSNAPSLSNFASLISTGQFNSSQTLANNLRADTPRNQVSGNFKENEYEDNGEHDSAENEQEMSPVRQLGREIKQENENLIRSIKTESSPKFLNSPDLPERTKLRNISETVPYVLRHERILARQQKLEELEAQSAKELQKRIQELERKAHELKLREKLINQNKLNGSSSSINSLQQSTRSQIKKNDTYTDLASIASGRD |
|  | no binding |  | Shs1-mCherry (yeast extract), Q07657 1-551 (protein) MSTASTPPINLFRRKKEHKRGITYTMLLCGPAGTGKTAFANNLLETKIFPHKYQYGKSNASISSNPEVKVIAPTKVVSFNSKNGIPSYVSEFDPMRANLEPGITITSTSLELGGNKDQGKPEMNEDDTVFFNLIMTHGIGENLDDSLCSEEVMSYLEQQFDIVLAEETRIKRNPRFEDTRVHVALYFIEPTGHGLREVDVELMKSISKYTNVLPIITRADSFTKEELTQFRKNIMFDVERYNVPIYKFEVDPEDDDLESMEENQALASLQPFAIITSDTRDSEGRYVREYPWGIISIDDDKISDLKVLKNVLFGSHLQEFKDTTQNLLYENYRSEKLSSVANAEEIGPNSTKRQSNAPSLSNFASLISTGQFNSSQTLANNLRADTPRNQVSGNFKENEYEDNGEHDSAENEQEMSPVRQLGREIKQENENLIRSIKTESSPKFLNSPDLPERTKLRNISETVPYVLRHERILARQQKLEELEAQSAKELQKRIQELERKAHELKLREKLINQNKLNGSSSSINSLQQSTRSQIKKNDTYTDLASIASGRD |
